These are yes or no findings as the source states them, for the method shown. In cells and extracts the contact can be indirect. Some binding calls cover weakened binding; strength is not graded here.
How the values were obtained:
GFP-Gemin2 S166A (human) = GFP-Gemin2 S166A (human) (UniProt O14893); assay: co-IP; GFP immunopurification: S100 extracts of doxycycline-induced (0.1 µg/mL, 24 h) Flp-In T-REx 293 cells on GFP-Trap beads, at least 2 h at 4 °C, washed 3 times with DPBS; Western blot
GFP-Gemin2 S81D (human) = GFP-Gemin2 S81D (human) (UniProt O14893); assay: as above
GFP-Gemin2 S166D (human) = GFP-Gemin2 S166D (human) (UniProt O14893); assay: as above
GFP-Gemin2 S81A (human) = GFP-Gemin2 S81A (human) (UniProt O14893); assay: as above
GFP-SMN wt (human) = GFP-SMN wt (human) (UniProt Q16637); assay: as above
GFP-Gemin2 wt (human) = GFP-Gemin2 wt (human) (UniProt O14893); assay: as above
GST-Gemin2 S81A (human) = GST-Gemin2 S81A (human) (UniProt O14893); assay: pull-down; recombinant GST proteins on glutathione Sepharose 4B incubated 2 h at 4 °C with HEK293T S100 (cytoplasmic) extract, washed 3 times with lysis buffer; Western blot; only the target purified
GST-Gemin2 S166A (human) = GST-Gemin2 S166A (human) (UniProt O14893); assay: as above
GST-Gemin2 S81D (human) = GST-Gemin2 S81D (human) (UniProt O14893); assay: as above
[1] = biological target: GST-Gemin2 wild type (wt) (human) (UniProt O14893); assay: as above
GST-Gemin2 S166D (human) = GST-Gemin2 S166D (human) (UniProt O14893); assay: as above

By UniProt entry, the sequences of proteins in these tests, tags left out. Where a name states a change or a piece, a line headed by the entry shows the natural chain unless it says otherwise.
UniProt O14893: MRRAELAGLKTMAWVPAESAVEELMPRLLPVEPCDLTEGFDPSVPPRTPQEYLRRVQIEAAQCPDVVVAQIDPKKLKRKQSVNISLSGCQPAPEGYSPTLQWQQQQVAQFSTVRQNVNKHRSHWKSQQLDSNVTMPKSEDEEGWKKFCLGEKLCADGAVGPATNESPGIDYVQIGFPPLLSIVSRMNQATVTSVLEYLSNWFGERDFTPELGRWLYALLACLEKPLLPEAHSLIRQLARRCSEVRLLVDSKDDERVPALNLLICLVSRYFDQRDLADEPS
UniProt Q16637: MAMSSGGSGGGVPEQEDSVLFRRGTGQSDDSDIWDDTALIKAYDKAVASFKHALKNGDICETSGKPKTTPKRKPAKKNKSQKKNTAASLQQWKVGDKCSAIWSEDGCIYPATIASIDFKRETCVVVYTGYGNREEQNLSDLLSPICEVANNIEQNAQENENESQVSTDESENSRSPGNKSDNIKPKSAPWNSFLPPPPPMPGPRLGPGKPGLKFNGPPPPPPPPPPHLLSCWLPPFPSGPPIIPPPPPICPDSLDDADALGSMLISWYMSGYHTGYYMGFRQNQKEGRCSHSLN
UniProt P57678: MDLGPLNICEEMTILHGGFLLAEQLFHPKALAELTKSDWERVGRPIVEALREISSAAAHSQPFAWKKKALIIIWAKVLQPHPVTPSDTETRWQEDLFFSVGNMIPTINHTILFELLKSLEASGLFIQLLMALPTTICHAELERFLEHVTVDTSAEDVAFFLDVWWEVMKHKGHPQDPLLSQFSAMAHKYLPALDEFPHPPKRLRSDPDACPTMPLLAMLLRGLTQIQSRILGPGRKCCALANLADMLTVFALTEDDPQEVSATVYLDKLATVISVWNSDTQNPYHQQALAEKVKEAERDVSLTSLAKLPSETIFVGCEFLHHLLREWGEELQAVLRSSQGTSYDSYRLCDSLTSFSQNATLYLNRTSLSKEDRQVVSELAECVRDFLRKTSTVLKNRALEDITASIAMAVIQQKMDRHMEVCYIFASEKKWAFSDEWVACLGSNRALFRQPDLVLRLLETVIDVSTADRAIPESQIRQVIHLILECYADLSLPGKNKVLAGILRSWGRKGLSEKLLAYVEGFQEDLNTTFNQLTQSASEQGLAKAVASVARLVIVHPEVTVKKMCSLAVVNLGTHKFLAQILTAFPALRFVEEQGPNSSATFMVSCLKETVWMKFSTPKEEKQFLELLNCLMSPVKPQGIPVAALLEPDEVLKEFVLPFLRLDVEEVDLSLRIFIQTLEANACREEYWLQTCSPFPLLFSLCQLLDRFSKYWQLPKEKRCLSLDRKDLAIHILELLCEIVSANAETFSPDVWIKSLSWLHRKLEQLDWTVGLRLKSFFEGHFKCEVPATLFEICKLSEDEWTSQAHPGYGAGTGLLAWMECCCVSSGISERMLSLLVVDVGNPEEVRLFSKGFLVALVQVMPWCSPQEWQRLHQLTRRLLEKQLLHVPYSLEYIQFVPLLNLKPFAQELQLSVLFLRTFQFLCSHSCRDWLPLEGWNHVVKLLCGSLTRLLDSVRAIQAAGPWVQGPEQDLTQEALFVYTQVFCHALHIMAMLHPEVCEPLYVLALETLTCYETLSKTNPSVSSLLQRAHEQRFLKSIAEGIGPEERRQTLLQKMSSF
UniProt Q8TEQ6: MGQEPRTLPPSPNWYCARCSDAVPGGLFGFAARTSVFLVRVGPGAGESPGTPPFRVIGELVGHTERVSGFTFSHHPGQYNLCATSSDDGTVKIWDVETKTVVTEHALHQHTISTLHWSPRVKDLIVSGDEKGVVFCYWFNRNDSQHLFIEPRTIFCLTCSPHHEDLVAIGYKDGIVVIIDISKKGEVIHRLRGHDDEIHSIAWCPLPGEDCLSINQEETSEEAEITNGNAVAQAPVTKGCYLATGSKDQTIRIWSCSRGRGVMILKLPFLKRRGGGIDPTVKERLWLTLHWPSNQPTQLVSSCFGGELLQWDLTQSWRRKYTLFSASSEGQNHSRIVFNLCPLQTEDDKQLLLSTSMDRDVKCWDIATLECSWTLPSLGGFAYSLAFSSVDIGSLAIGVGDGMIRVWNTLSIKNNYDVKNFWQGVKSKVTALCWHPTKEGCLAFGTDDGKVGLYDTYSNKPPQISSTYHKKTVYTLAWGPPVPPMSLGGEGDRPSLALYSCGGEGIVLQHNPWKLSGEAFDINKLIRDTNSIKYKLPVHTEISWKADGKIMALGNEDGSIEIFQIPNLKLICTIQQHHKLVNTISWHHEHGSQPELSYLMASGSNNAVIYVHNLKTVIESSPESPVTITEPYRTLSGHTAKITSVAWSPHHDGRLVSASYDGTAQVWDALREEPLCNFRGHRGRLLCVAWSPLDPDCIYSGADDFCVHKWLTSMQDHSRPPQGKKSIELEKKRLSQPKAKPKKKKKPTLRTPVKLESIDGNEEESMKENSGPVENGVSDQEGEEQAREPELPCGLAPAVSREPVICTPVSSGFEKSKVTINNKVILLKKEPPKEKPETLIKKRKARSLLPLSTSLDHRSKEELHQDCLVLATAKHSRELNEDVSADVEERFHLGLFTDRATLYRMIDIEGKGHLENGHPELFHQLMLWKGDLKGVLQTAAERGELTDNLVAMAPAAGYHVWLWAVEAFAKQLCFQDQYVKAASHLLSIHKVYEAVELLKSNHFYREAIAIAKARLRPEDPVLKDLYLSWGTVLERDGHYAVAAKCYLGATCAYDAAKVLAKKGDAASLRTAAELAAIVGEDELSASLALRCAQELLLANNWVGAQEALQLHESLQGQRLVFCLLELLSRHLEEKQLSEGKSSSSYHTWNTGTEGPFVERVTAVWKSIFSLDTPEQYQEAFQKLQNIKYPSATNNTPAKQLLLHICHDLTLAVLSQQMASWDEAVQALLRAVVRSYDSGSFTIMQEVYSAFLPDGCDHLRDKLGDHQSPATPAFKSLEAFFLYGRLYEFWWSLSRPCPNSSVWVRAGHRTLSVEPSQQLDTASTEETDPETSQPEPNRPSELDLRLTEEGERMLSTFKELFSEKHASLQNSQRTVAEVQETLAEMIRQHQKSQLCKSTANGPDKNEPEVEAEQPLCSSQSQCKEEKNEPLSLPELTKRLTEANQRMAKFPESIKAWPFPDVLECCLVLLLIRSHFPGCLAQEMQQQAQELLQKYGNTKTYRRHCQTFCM
UniProt Q9UHI6: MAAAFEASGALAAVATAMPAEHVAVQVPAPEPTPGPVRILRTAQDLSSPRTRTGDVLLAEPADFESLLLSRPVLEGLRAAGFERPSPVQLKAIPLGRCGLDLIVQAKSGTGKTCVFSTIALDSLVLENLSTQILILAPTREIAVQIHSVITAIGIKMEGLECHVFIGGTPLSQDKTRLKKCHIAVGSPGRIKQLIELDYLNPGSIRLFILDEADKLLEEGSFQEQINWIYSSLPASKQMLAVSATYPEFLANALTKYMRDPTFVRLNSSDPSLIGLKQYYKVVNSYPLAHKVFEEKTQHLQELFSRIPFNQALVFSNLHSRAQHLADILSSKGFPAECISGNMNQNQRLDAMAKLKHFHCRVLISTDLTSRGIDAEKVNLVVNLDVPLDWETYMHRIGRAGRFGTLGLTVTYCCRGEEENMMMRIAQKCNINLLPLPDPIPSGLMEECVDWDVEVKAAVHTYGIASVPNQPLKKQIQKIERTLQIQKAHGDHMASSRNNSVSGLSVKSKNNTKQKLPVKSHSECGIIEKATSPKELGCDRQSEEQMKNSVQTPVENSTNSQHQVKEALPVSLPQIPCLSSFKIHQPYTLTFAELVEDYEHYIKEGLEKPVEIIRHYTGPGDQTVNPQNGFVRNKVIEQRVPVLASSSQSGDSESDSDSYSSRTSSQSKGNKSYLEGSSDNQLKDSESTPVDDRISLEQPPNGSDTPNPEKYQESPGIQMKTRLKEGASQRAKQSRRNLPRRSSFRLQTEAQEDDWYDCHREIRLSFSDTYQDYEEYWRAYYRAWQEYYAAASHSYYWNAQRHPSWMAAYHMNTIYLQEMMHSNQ

Measured: binding

Gemin4 (endogenous) (from UniProt P57678 1-1058)
binds: GFP-Gemin2 S166A (human) | GFP-Gemin2 S81D (human) | GFP-Gemin2 S166D (human) | GFP-Gemin2 S81A (human)

Gemin2 (endogenous) (from UniProt O14893 1-280)
binds: GFP-Gemin2 S166A (human) | GFP-Gemin2 S81D (human) | GFP-Gemin2 S166D (human) | GFP-SMN wt (human) | GFP-Gemin2 S81A (human)

Gemin5 (endogenous) (from UniProt Q8TEQ6 1-1508)
binds: GFP-Gemin2 S166A (human) | GFP-Gemin2 S81D (human) | GFP-Gemin2 S166D (human) | GFP-SMN wt (human) | GFP-Gemin2 wt (human) | GFP-Gemin2 S81A (human)

Gemin3 (endogenous) (from UniProt Q9UHI6 1-824)
binds: GFP-Gemin2 S166A (human) | GFP-Gemin2 S81D (human) | GFP-Gemin2 S166D (human) | GFP-SMN wt (human) | GFP-Gemin2 wt (human) | GFP-Gemin2 S81A (human)

survival motor neuron (SMN) protein (endogenous) (from UniProt Q16637 1-294)
not listed: GFP-SMN wt (human)
binds: all other assays above

— article PMC10649565
